# Source: publication PMC7819943, “Rice protein-binding microarrays: a tool to detect cis-acting elements near promoter regions in rice”
# This is one part of the list.
# Biological target: T1, OsSMF1 (Oryza sativa, UniProt Q6ZLB0 1-436)
# T1 sequence: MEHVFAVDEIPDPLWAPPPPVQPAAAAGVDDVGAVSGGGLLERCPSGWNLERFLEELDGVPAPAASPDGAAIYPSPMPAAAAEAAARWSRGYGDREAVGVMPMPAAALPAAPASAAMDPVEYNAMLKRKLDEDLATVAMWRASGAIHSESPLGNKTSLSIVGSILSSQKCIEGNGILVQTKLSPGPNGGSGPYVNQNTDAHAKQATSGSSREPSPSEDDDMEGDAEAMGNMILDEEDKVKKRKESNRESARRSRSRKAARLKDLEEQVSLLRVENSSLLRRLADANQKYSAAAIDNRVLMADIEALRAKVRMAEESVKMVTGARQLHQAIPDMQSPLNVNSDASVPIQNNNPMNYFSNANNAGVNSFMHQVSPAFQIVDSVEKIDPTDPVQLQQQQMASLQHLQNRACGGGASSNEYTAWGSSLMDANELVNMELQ
# Assay: protein-binding microarray (RPBM); PBS, 2% BSA, 51.3 ng/ul salmon testes DNA, 50 uM zinc acetate, 200 nM TF, 25 C, 1 h; high values mean tight binding
# Conditions: protein: recombinant; tags: N-terminal polyhistidine and DsRed monomer fusion (pET32a); chain copies: 2; label: CyDye5-dUTP incorporated in the synthesized complementary strand; 3' TTTTT single-stranded linker to array surface; dsDNA, one strand shown
# Outline: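 Polyhistidine-tagged DsRed fusions of transcription factors, joined at the N-terminus, were expressed in E. coli BL21-CodonPlus and isolated on Ni–NTA. They were incubated at 200 nM for 1 h at 25 °C on a custom Agilent array, double-stranded and BSA-blocked, in PBS with 2% BSA, salmon testes DNA and 50 µM zinc acetate. The binding signal is per-feature fluorescence intensity (arbitrary units) read on an Axon 4000B scanner after washing.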
row,Sequence,binding signal
1,CCACACCGCATCGTCATCTACACATCTCCACCTCCCGCGGCGGAGTCACCTAGTGCAG,5220 fluorescence intensity (a.u.)
2,CCCAGCCCACAAAGGAAGCGAGATCACAATTTCTGGGCCGCGGAGTCACCTAGTGCAG,3400 fluorescence intensity (a.u.)
3,GTCAGCCCCGTCGTCGCCGGTCCGTCGCCGCCCGCGTCAGCGGAGTCACCTAGTGCAG,3170 fluorescence intensity (a.u.)
4,GCGTCTGGTGGTGACGCCAGGCCCGTCCACCTCCCCGTCGCGGAGTCACCTAGTGCAG,4770 fluorescence intensity (a.u.)
5,TAAGTTACACGCAACTCATCTGGTTCAGTTACGTGGAGTGCGGAGTCACCTAGTGCAG,6460 fluorescence intensity (a.u.)
6,CGCGTCGCCGTGTCCAACACGCGCGCCGCCGCCGGCGCCGCGGAGTCACCTAGTGCAG,3690 fluorescence intensity (a.u.)
7,TGGTCGGCGGCGACGGCAGTTGGTGGCGGTGGAGGTGCGACGGAGTCACCTAGTGCAG,23000 fluorescence intensity (a.u.)
8,TTAGTGAACTGAAAGTGTTACACGTCATGTAAACGAATTCCGGAGTCACCTAGTGCAG,7280 fluorescence intensity (a.u.)
9,TGGTGTAGGGTTATGATTGGATGAGTAGTGGAGGTAGGTACGGAGTCACCTAGTGCAG,3680 fluorescence intensity (a.u.)
10,TTTCTTCCTAAGATGACGAAACATTCAATGGTGTGTGGACCGGAGTCACCTAGTGCAG,3340 fluorescence intensity (a.u.)
11,CGTGTGGTTGTGGGGATGGACGCAGCTAGAGCATGGCGTGCGGAGTCACCTAGTGCAG,5170 fluorescence intensity (a.u.)
12,ATTATAGGTCCAGCTAAGTTGGCCCTGGTATATATATTGGCGGAGTCACCTAGTGCAG,3980 fluorescence intensity (a.u.)
13,ATGACGTGACATTGACGTGGCGCTTACGTGGCAATTCGACCGGAGTCACCTAGTGCAG,25600 fluorescence intensity (a.u.)
14,GTATCTCACGAGATAGGTAGGTACCTGAGTGCCTGAATTTCGGAGTCACCTAGTGCAG,24800 fluorescence intensity (a.u.)
15,TTGCTGTCTTGCGTGTTCATGCTGCCCCGCGGGCGTTGAGCGGAGTCACCTAGTGCAG,3530 fluorescence intensity (a.u.)
16,TGCCGTCTTCAACCTAGATCGACACGCATACACGCTAGGGCGGAGTCACCTAGTGCAG,5090 fluorescence intensity (a.u.)
17,ACTCATCTTGCCGAACAAACTTTCTTTTGACGCCATCGCGCGGAGTCACCTAGTGCAG,3460 fluorescence intensity (a.u.)
18,CTTTGGTGGGAGATGGATCGCAATGTCATGTGTCCCTTCTCGGAGTCACCTAGTGCAG,4350 fluorescence intensity (a.u.)
19,GCCCCGCGTCTCCCTCCGCCGCAGCAGCCTCGTCAGCTCGCGGAGTCACCTAGTGCAG,6090 fluorescence intensity (a.u.)
20,CTTTCTCTCGATGGTGATTCAGCAGGGTAGGGAAGCTCAACGGAGTCACCTAGTGCAG,3460 fluorescence intensity (a.u.)
21,CCGGCGTGGCGACGTCAGTACTCTCTTCTGCTTCATTTCTCGGAGTCACCTAGTGCAG,7490 fluorescence intensity (a.u.)

# Rewritten as tab-separated lines: entries from further up
row	Sequence	binding signal
7	TGGTCGGCGGCGACGGCAGTTGGTGGCGGTGGAGGTGCGACGGAGTCACCTAGTGCAG	23000 fluorescence intensity (a.u.)
9	TGGTGTAGGGTTATGATTGGATGAGTAGTGGAGGTAGGTACGGAGTCACCTAGTGCAG	3680 fluorescence intensity (a.u.)

# (list continues)

row,Sequence,binding signal
1,TGTGCTTCAAATCTTCTTCTTTGTCATGCGTCACTGCAGGCGGAGTCACCTAGTGCAG,5200 fluorescence intensity (a.u.)
2,TGCCGCCACATGCATCCAAGCCGCCTAAGCCGGCGTGCCACGGAGTCACCTAGTGCAG,3350 fluorescence intensity (a.u.)
3,GCTTGCGAGATCATCCCTGCCTGCCTGTCCCTTTCCTGCACGGAGTCACCTAGTGCAG,3220 fluorescence intensity (a.u.)
4,TACGTTTTCGTATGCGATCAATGACACGACCCTTATGGATCGGAGTCACCTAGTGCAG,3560 fluorescence intensity (a.u.)
5,AGTTTTGTGGTTTCATGGCATGGCTGACGGGGTGGTACTGCGGAGTCACCTAGTGCAG,5100 fluorescence intensity (a.u.)
6,CTCCATCTAAAGTTGGTGAAAAGCTATATAACCGTTGACTCGGAGTCACCTAGTGCAG,11800 fluorescence intensity (a.u.)
7,CGTGACGCCTACGTGGCTAATACTCTAAATTAGTCTATGTCGGAGTCACCTAGTGCAG,15800 fluorescence intensity (a.u.)
8,ATTGTCATTGACTTGTCAACAACTAGTTATTGTACATGCACGGAGTCACCTAGTGCAG,3250 fluorescence intensity (a.u.)
9,GATGATTAACGAGTCACTGTTACTACTACTTTCCCACCCTCGGAGTCACCTAGTGCAG,4490 fluorescence intensity (a.u.)
10,TCCATTGAGGCAATAAGTTTCACCGAGGACCCTATTTTGTCGGAGTCACCTAGTGCAG,10900 fluorescence intensity (a.u.)
11,TTCTTCCTCCTCCTCCTACAGTGGACTCGTGGCTGGCAGCCGGAGTCACCTAGTGCAG,3200 fluorescence intensity (a.u.)
12,CAGATCCTCTGCAGTACTGCTGATGCAATAGCAGTGGATGCGGAGTCACCTAGTGCAG,4820 fluorescence intensity (a.u.)
13,TGGGATGCCCAGTATGGTTGGCGAGTTGACATGGCTACCGCGGAGTCACCTAGTGCAG,3600 fluorescence intensity (a.u.)
14,ATCGAACGTTTGGACACATGTAAATAGTATTAAACATAGACGGAGTCACCTAGTGCAG,23400 fluorescence intensity (a.u.)
15,ATTGAGCCCGCCGCAAGGGAGTCTGGCGTGTCAGCGAGAGCGGAGTCACCTAGTGCAG,4360 fluorescence intensity (a.u.)
16,GCAACCAAGCTGCCGGCCGGCCTGACGCATCCACAGACCCCGGAGTCACCTAGTGCAG,3640 fluorescence intensity (a.u.)
17,CGTGCCCTCCATGTCCAAGAACGTCGATGGCGCGCGACCGCGGAGTCACCTAGTGCAG,26000 fluorescence intensity (a.u.)
18,TCTCCCTGATTGGTGGTGTTTGTTTGAAAAGAAAGTTTATCGGAGTCACCTAGTGCAG,19900 fluorescence intensity (a.u.)
19,ACGAGATTACCACCGCAATATGGGCAATATGGAAAATATTCGGAGTCACCTAGTGCAG,16900 fluorescence intensity (a.u.)
20,GTAACTGAGTCAATCCAGCAACGCATTGACCATATGAGCTCGGAGTCACCTAGTGCAG,3910 fluorescence intensity (a.u.)
21,TTATTAACAATATTCCAACAATTTGGGACAAGTTGTTTGACGGAGTCACCTAGTGCAG,3160 fluorescence intensity (a.u.)
